These are yes or no findings as the source states them, for the method shown. Some results given as binding are weak or reduced against the parent protein; the word gives no strength.
T1: human CD133 (human) (UniProt O43490)
T1 sequence: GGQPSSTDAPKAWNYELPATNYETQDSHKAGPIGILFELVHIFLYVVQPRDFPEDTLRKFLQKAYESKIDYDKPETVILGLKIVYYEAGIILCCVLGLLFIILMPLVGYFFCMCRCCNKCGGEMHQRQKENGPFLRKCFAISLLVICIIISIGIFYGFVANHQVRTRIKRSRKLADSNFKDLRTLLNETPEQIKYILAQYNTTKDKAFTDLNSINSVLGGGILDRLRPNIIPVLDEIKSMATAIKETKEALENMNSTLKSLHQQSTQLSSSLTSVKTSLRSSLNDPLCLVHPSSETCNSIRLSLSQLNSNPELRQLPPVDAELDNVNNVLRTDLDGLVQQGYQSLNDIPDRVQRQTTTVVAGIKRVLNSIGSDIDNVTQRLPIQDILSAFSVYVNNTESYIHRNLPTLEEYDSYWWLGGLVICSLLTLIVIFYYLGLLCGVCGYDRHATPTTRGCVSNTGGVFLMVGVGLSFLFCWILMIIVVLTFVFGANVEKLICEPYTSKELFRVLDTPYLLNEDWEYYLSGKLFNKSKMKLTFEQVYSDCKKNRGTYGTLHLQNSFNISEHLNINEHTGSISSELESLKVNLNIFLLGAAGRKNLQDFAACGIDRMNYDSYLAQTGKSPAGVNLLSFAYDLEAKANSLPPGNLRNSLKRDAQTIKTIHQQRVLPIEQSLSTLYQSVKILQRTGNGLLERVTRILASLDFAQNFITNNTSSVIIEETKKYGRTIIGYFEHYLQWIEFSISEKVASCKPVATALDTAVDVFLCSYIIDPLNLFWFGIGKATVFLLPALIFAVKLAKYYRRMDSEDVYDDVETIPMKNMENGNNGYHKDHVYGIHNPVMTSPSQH

T2: recombinant chimeric CD133 antigen (human) (UniProt O43490)
T2 sequence: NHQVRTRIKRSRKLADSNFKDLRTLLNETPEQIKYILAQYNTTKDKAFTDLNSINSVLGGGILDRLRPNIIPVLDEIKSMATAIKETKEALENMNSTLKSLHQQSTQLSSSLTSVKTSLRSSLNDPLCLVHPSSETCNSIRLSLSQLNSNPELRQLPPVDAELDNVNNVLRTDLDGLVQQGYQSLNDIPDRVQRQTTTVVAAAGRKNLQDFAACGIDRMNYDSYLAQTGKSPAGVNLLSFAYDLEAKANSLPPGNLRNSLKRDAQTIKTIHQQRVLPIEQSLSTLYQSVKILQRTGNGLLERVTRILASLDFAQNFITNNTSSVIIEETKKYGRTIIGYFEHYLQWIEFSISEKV


Key:
human CD133 (human) [1] = target: T1, human CD133 (human); test: flow cytometry on HEK293-TLR2 cells transfected with CD133
human CD133 (human) [2] = target: T1, human CD133 (human); test: flow cytometry on HEK293-TLR2 cells transfected with CD133, figure legend
human CD133 (human) [3] = target: T1, human CD133 (human); test: Western blot of lysates of tunicamycin-treated Caco-2 cells
[4] = target: T2, recombinant chimeric CD133 antigen (human); test: ELISA of hybridoma supernatants against recombinant CD133; Hybridoma Clone 7 is one of the screened hybridomas
human CD133 (human) [5] = target: T1, human CD133 (human); test: immunohistochemistry on human glioma and kidney tissue sections
human CD133 (human) [6] = target: T1, human CD133 (human); test: flow cytometry on Caco-2 and GBM6 cells
human CD133 (human) [7] = target: T1, human CD133 (human); test: immunofluorescence on fixed CD133+ Caco-2 cells
human CD133 (human) [8] = target: T1, human CD133 (human); test: flow cytometry on U87 cells transfected with human CD133 cDNA
human CD133 (human) [9] = target: T1, human CD133 (human); test: flow cytometry
human CD133 (human) [10] = target: T1, human CD133 (human); test: Western blot of Caco-2 lysate with hybridoma supernatant

binding (human CD133 (human) [1])	binding (human CD133 (human) [2])	binding (human CD133 (human) [3])	binding [4]	binding (human CD133 (human) [5])	binding (human CD133 (human) [6])	binding (human CD133 (human) [7])	binding (human CD133 (human) [8])	binding (human CD133 (human) [9])	binding (human CD133 (human) [10])	Binder
binds	binds									FITC-labeled CD133scFv (scFv) scFv: MDIVLSQSPAIMSASPGEKVTISCSASSSVSYMYWYQQKPGSSPKPWIYRTSNLASGVPARFSGSGSGTSYSLTISSMEAEDAATYYCQQYHSYPPTFGAGTKLELKSSGGGGSGGGGGGSSRSSLEVKLVESGPELKKPGETVKISCKASGYTFTDYSMHWVNQAPGKGLKWMGWINTETGEPSYADDFKGRFAFSLETSASTAYLQINNLKNEDTATYFCATDYGDYFDYWGQGTTLTVSS
		binds	binds	binds	binds	binds	binds	binds	binds	monoclonal antibody produced by Hybridoma Clone 7 (antibody, V domains shown) VH: EVKLVESGPELKKPGETVKISCKASGYTFTDYSMHWVNQAPGKGLKWMGWINTETGEPSYADDFKGRFAFSLETSASTAYLQINNLKNEDTATYFCATDYGDYFDYWGQGTTLTVSS VL: DIVLSQSPAIMSASPGEKVTISCSASSSVSYMYWYQQKPGSSPKPWIYRTSNLASGVPARFSGSGSGTSYSLTISSMEAEDAATYYCQQYHSYPPTFGAGTKLELK

— patent US20130224202A1
